Source: US20180066064A1, “BIOTHERAPEUTICS TARGETING GPR158 FOR CANCER” (University of Southern California, priority 2015, published 2018)
For at least one compound, name, drawing or mass did not settle the structure.

Columns and labels:
Format in all cases: cell-based, human
lenti-GPR158 LNCaP cells = experiment: Cell counting of lenti-GPR158 LNCaP cells after Dox treatment; conditions: Dox 500 ng/mL, 3 days, normalized for Dox alone on parental cells
[1] = tested on: GPR158 driven by a doxycycline inducible promoter; AR, PSA; experiment: Dox induction in lenti-GPR158 LNCaP cells (western blotting); conditions: 3 days
[2] = tested on: GPR158, AR, PSA in parental LNCaP cells; experiment: Dox treatment of parental LNCaP cells (western blotting); conditions: Dox 100 and 500 ng/mL, 3 days, vs un-induced cells
[3] = tested on: DHT-mediated GPR158 and PSA expression (AR antagonist); experiment: Bicalutamide pre-incubation before DHT treatment in PHPEC (qRT-PCR, western blotting); conditions: bicalutamide 10 μM 1-hr prior to DHT 10 nM 24 hrs, 10% CSS

Row | Structure (SMILES) | effect on cell proliferation (lenti-GPR158 LNCaP cells) | expression of AR and PSA ([1]; Dox 100 ng/mL) | expression of AR and PSA ([1]; Dox 500 ng/mL) | levels of GPR158, AR, PSA, or beta-actin [2] | DHT-mediated increase in GPR158 mRNA and protein levels [3] | PSA expression [3]
1 | C[C@H]1c2cccc(O)c2C(=O)C2=C(O)[C@]3(O)C(=O)C(C(N)=O)=C(O)[C@@H](N(C)C)[C@@H]3[C@@H](O)[C@@H]21 [Dox, doxycycline] | only a small effect | substantial increase | not with Dox treatment at 500 ng/mL | no change |  | 
2 | CC(O)(CS(=O)(=O)c1ccc(F)cc1)C(=O)Nc1ccc(C#N)c(C(F)(F)F)c1 (stereo not drawn) [bicalutamide] |  |  |  |  | inhibited | complete inhibition
